# Experimental data from PubChem BioAssay AID504444 (National Center for Advancing Translational Sciences (NCATS), 2011).
# Out of some 360,000 compounds screened, about 7,500 (2.1%) were called active. The inconclusive results got no clear call from the source; some entries with a clear call stand among them for comparison. The call rests on the fitted dose curve; in most records, active means well fitted inhibition curve with a large enough effect; inconclusive means small, poorly fitted or top-dose-only effect, or effect the other way; inactive means flat fitted curve, though single readings scatter. Potencies of inconclusive entries are doubtful fits and often do not repeat.
# Experiment: Nrf2 qHTS screen for inhibitors; further: nearly all actives have a fitted effect of over 60% in size
# Conditions: A549 ARE-Fluc reporter, luciferase luminescence, 18-24 h; activity change, negative = inhibition: at 46 µM (top of the series)
# Method in brief: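 Two sequential reads on A549 ARE_Fluc cells exposed to compound for 18-24 h: a CellTiter-Fluor fluorescence read for viability, then a luciferase luminescence read for Nrf2/ARE activity.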
# On the % scale 0 is the no-effect control and ±100 the full control effect; potency means the concentration at half of the fitted maximal effect.
SMILES,Potency,"activity change, negative = inhibition"
CC(C)c1nc(SCC(=O)Nc2ccc(C(=O)O)cc2)c2c3c(sc2n1)CCCC3,"inconclusive: 29.1 µM [falling, single point]",
C[C@@H](CN1C2=NC[C@H](Cc3ccc(O)cc3)N2C[C@H]1Cc1ccc(O)cc1)NC(=O)CCC1CCCCC1,inactive,
CCOc1ccc(C(C)=O)cc1COC(=O)CNC(=O)C12CC3CC(CC(C3)C1)C2,inactive,
COc1ccc(CNc2nc(-c3ccc(Cl)cc3)cc(C(F)(F)F)n2)cc1,,inactive: 0.506% [at 9.27 µM]
CCOc1ccc(S(=O)(=O)n2cc(-c3ccccc3)c(N)n2)cc1,"inconclusive: 6.51 µM [activator, single point]",
Cc1cc2nc(C3CCN(C(=S)NCC(C)C)CC3)[nH]c2cc1C,"inconclusive: 20.6 µM [falling, partial curve, poor fit]",
COc1cccc(Cn2nnc3c(=O)[nH]c(C4CCCN(C(=O)c5ccccc5Cl)C4)nc32)c1 (centres undefined),"inconclusive: 7.31 µM [falling, partial curve, poor fit]",
COC(=O)c1ccccc1NC(=O)c1cccnc1,"inconclusive: 0.651 µM [activator, partial curve, poor fit]",
N/C(=N\OC(=O)c1ccc(Cl)c([N+](=O)[O-])c1)c1ccccn1,"inconclusive: 16.4 µM [activator, partial curve]",
Cc1cc2[nH]c(=O)cc(-c3ccccc3)n2n1,"inconclusive: 5.8 µM [activator, partial curve, poor fit]",
CCOC(=O)N1CCC(NC(=O)c2cc3c(-c4ccccc4F)nn(C)c3s2)CC1,"inconclusive: 20.6 µM [falling, partial curve, poor fit]",
Cn1cccc1/C=N/NC(=O)c1ccn[nH]1,"inconclusive: 18.4 µM [activator, single point]",
O=C(Cn1cc(C(=O)C2CC2)c2ccccc21)NCc1ccccc1,"inconclusive: 5.8 µM [activator, full curve, poor fit]",
O=C1N(Nc2ccccc2)C(c2ccc(Br)cc2)C12CCCCC2 (centres undefined),"inconclusive: 8.2 µM [falling, partial curve, poor fit]",
COc1ccccc1NC(=O)Nc1nc(CC(=O)Nc2ccc(F)c(F)c2)cs1,"inconclusive: 23.1 µM [falling, single point]",
Cc1nc2cc(-c3cccc(F)c3)nn2c(C)c1CCC(=O)Nc1ccccc1C(N)=O,"inconclusive: 2.59 µM [falling, full curve]",
CCC(CC)C(=O)NCc1cccnc1,"inconclusive: 3.66 µM [falling, partial curve, poor fit]",
O=C(Nc1cnn(Cc2ccc(F)cc2)c1)c1cnn2c(C(F)F)cc(-c3ccccc3)nc12,"inconclusive: 1.84 µM [falling, full curve, poor fit]",
Cc1c(C)c(C)c(S(=O)(=O)NCCc2ccncc2)c(C)c1C,"inconclusive: 14.6 µM [falling, single point]",
NS(=O)(=O)c1ccc(CCNC(=O)c2cc(-c3ccccn3)nc3ccc(Br)cc23)cc1,"inconclusive: 20.6 µM [falling, single point]",

SMILES,Potency,"activity change, negative = inhibition"
COc1ccc(OC)c(CNC(=O)CCC(=O)N2Cc3cccc(OC)c3Oc3ncccc32)c1,"inconclusive: 0.116 µM [falling, full curve, poor fit]",
O=C(c1cccc(Cl)c1)N1CCC(C(=O)N2CCN(Cc3ccccc3)CC2)CC1,inactive,
Cc1ccc(-n2c(SCC(N)=O)nnc2-c2ccc(S(=O)(=O)N3CCCCC3)cc2)c(C)c1,"inconclusive: 9.2 µM [falling, partial curve, poor fit]",
CCc1nnc(NC(=O)c2ccc(OC)c(S(=O)(=O)N3CCCC3)c2)s1,"inconclusive: 13 µM [falling, partial curve, poor fit]",
O=C(O)c1cnc(-c2ccccc2)nc1Sc1cccc(Cl)c1,inactive,
CCOc1ccc(OCC)c(NC(=O)C2CCN(S(=O)(=O)c3ccc4c(c3)CC(C)N4C(C)=O)CC2)c1 (centres undefined),"inconclusive: 8.2 µM [falling, partial curve, poor fit]",
COc1ccc(CCNc2ccc(C(CC(N)=O)NC(=O)c3cc(OC)ccc3OC)cc2[N+](=O)[O-])cc1 (centres undefined),"inconclusive: 16.4 µM [falling, partial curve]",
O=C(CC1C(=O)NCCN1C(=O)Nc1ccc(F)cc1)Nc1ccc(F)cc1 (centres undefined),"inconclusive: 32.6 µM [falling, single point]",
CC(C)(C)n1ncc2c(=O)n(Cc3c(F)cccc3Cl)cnc21,"inconclusive: 23.1 µM [activator, single point]",
CC(C)(C)NC(=O)C(=O)NCc1ccccn1,"inconclusive: 13 µM [activator, partial curve]",
O=C(/C=C/NNC(=O)c1ccc(Br)cc1)c1ccccc1,"inconclusive: 16.4 µM [falling, partial curve, poor fit]",
CC(C)(C)NC(=O)CCCSc1nc2ccccc2s1,"inconclusive: 5.17 µM [activator, single point]",
Cc1ccc(-c2csc3ncnc(Sc4nnc(CN5CCCCCC5=O)o4)c23)cc1,active: 14.6 µM,
CCCn1c(Nc2ccccc2C)nc2ccccc21,"inconclusive: 2.31 µM [falling, single point]",
COc1ccccc1S(=O)(=O)Cc1ccc(C(=O)N2CCN(c3cc(Cl)ccc3C)CC2)o1,"inconclusive: 25.9 µM [falling, single point]",
CC(C)OC(=O)C1C(=O)CC(C)(O)C(C(=O)OC(C)C)C1c1ccccc1 (centres undefined),"inconclusive: 1.3 µM [activator, full curve, poor fit]",
O=C(N1CCN(c2cccc(Cl)c2)CC1)C1(c2cccs2)CCOCC1,"inconclusive: 18.4 µM [falling, partial curve, poor fit]",
O=C(N/N=C/c1ccc2c(c1)OCO2)c1cccnc1,"inconclusive: 5.8 µM [falling, single point]",
Cn1nnc(NC(=S)NC(=O)c2cccc3ccccc23)n1,inactive,

# 3 structures already listed, sorted by formula weight, smallest number first.
SMILES,Potency,"activity change, negative = inhibition"
O=C(N/N=C/c1ccc2c(c1)OCO2)c1cccnc1,"inconclusive: 5.8 µM [falling, single point]",
CC(C)(C)NC(=O)CCCSc1nc2ccccc2s1,"inconclusive: 5.17 µM [activator, single point]",
O=C(O)c1cnc(-c2ccccc2)nc1Sc1cccc(Cl)c1,inactive,
